This is an account of results in article PMC7819943, “Rice protein-binding microarrays: a tool to detect cis-acting elements near promoter regions in rice”.

By UniProt entry, the sequences of proteins in these tests, tags left out.
UniProt Q0JBA9, entry or part of it: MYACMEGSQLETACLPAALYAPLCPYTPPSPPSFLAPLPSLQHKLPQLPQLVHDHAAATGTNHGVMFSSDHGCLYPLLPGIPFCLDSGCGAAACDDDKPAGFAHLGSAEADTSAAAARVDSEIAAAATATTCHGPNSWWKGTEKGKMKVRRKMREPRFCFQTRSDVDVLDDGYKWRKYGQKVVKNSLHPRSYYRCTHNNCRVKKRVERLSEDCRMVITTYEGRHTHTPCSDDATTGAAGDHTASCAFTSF

This is one part of the list.

The target in the assay is OsWRKY34 (Oryza sativa, UniProt Q0JBA9 1-250). The experiment in a line: protein-binding microarray (RPBM); PBS, 2% BSA, 51.3 ng/ul salmon testes DNA, 50 uM zinc acetate, 200 nM TF, 25 C, 1 h; high values mean tight binding. The following applies: protein: recombinant; tags: N-terminal polyhistidine and DsRed monomer fusion (pET32a); label: CyDye5-dUTP incorporated in the synthesized complementary strand; 3' TTTTT single-stranded linker to array surface; dsDNA, one strand shown. A digest of the protocol: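 Transcription factors were made in E. coli BL21-CodonPlus as N-terminal fusions to a polyhistidine tag and DsRed, then purified on Ni–NTA. After primer extension with Cy5-dUTP and blocking with 2% BSA, a custom Agilent array was exposed for 1 h at 25 °C to 200 nM protein in PBS, 2% BSA, salmon testes DNA and 50 µM zinc acetate. Washed arrays were scanned on an Axon 4000B, and the binding signal is per-feature fluorescence intensity in arbitrary units.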
On to “CAGCAGCCAGGAACCAGCCACACATTCCACAGCCGCGACGCGGAGTCACCTAGTGCAG”, for which the binding signal is 8180 fluorescence intensity (a.u.).

“TGGAGAGCTGGTTATATAGGTGTTTGGAGAGTCCGTTTTACGGAGTCACCTAGTGCAG”: the binding signal is 8360 fluorescence intensity (a.u.). In the case of “CTTTTTCCCCGTGAGGACTATCACCGCGGCGCCGAATTGCCGGAGTCACCTAGTGCAG”, the binding signal is 8050 fluorescence intensity (a.u.).

With “CCTATTCCCTTCGACTCCACACCACCACAACTACCGCGCGCGGAGTCACCTAGTGCAG”, the binding signal was 12000 fluorescence intensity (a.u.). The same measure for “GGCCATTTGTACCATTGTTAGCCATCTATGCTTGCTGTGCCGGAGTCACCTAGTGCAG”: 9330 fluorescence intensity (a.u.); for “ATCCACAGCTTTGCAATGCTCTAGTTTTTAATAACCTTTTCGGAGTCACCTAGTGCAG”: 8440 fluorescence intensity (a.u.); for “CATTTGCATACTTGTTTGTTGTGACACTCGTTTTCTTTGCCGGAGTCACCTAGTGCAG”: 8990 fluorescence intensity (a.u.). The same measure for “TTTTTTCTGATTTTGCATGGCGCTCTCGCGGGTGTTTTTTCGGAGTCACCTAGTGCAG”: 11200 fluorescence intensity (a.u.). The same measure for “TCTTCCCAACCAATCAAAACTCTCTACCATTCACTTTTCCCGGAGTCACCTAGTGCAG”: 9570 fluorescence intensity (a.u.). Turning to “CCGCCGCCGCTGCCGCTGCCCCTTCTCGCCGCCGGCTTCTCGGAGTCACCTAGTGCAG”, the binding signal was 8860 fluorescence intensity (a.u.).

For “GGTTTAGGCTGTGTTTAGTTCTTTTTTTAATTTTTTTTAACGGAGTCACCTAGTGCAG”, the binding signal was 16500 fluorescence intensity (a.u.). Consider “CCATCGGTACCATCTGTTTCGTCTACTTCCTTTGTAATCTCGGAGTCACCTAGTGCAG”, for which the binding signal is 9150 fluorescence intensity (a.u.).

Take “TCATACCCTATTTTAAGGTTGAGGGCATGAGGGGTGTAAACGGAGTCACCTAGTGCAG”: the binding signal was 9580 fluorescence intensity (a.u.).

As to “CGCGGCAGCCGTCACGCTTCGGTCACTCATCCACTCCCACCGGAGTCACCTAGTGCAG”, the binding signal was 9220 fluorescence intensity (a.u.).

As for “ACCCTCGTGCCGCCGCCGCCGCCGCCCCTCGTGCGGGCCCCGGAGTCACCTAGTGCAG”, the binding signal is 8460 fluorescence intensity (a.u.). The same measure for “CGGTGTTCCTCCTGGCTATATATACACGACGCGTTGCCGTCGGAGTCACCTAGTGCAG”: 8970 fluorescence intensity (a.u.). Regarding “ATAACGGCTGATATGTGGGCCCCACGTACTTTTCTTAATTCGGAGTCACCTAGTGCAG”, the binding signal is 8200 fluorescence intensity (a.u.). For “CTGGATTAGTGTTTCTTGGCGGGATTTGGTGAGCGATTGACGGAGTCACCTAGTGCAG” the value was 8320 fluorescence intensity (a.u.); for “GGAAACAGTAACCGTCACCTCGCCTCGCCTCAAACCTCAACGGAGTCACCTAGTGCAG”, 8790 fluorescence intensity (a.u.). “CTCTCTCTCTCTCTCTCTCTCTCTCTCTCTCGTATTTTCCCGGAGTCACCTAGTGCAG”: the binding signal is 8750 fluorescence intensity (a.u.). For “GAGTACTCGTCCGGGGTTTTTAACTTTTTGCCACTTTTAACGGAGTCACCTAGTGCAG” the value was 9100 fluorescence intensity (a.u.); for “GGCTTCTTTTCTCTCCAATCTCTCTCTCTCTCTCTCTCTTCGGAGTCACCTAGTGCAG”, 8940 fluorescence intensity (a.u.). “TAACTGGCTGTACATTTTTTTCCCATGTGTCACTGACATGCGGAGTCACCTAGTGCAG”: the binding signal is 8610 fluorescence intensity (a.u.). The same measure for “AAACACTGCATCGCCACCGGCATCCATCCTCACCAAGATACGGAGTCACCTAGTGCAG”: 10700 fluorescence intensity (a.u.). As to “ATTATTTTTGTTTGACTGTTTAAAAATGACGACGAACAGACGGAGTCACCTAGTGCAG”, the binding signal was 8350 fluorescence intensity (a.u.). As for “CGCTGCCCACCTCCTTTCCTTTTTCCGCTGCCAGCCGACTCGGAGTCACCTAGTGCAG”, the binding signal was 9910 fluorescence intensity (a.u.).

“CTGGCTTGCAACTACTACCCGTTAAGACCACGCGCGCCTCCGGAGTCACCTAGTGCAG”: the binding signal was 8230 fluorescence intensity (a.u.).

In the case of “TTCCTAGTACTATCTGCGTTGCGTTGACTGACATGTGGGCCGGAGTCACCTAGTGCAG”, the binding signal was 17000 fluorescence intensity (a.u.). With “AGGGTGGTAAAATAAACTTATTCCTGCTAGGCTAGGGAAACGGAGTCACCTAGTGCAG”, the binding signal is 9460 fluorescence intensity (a.u.).

Regarding “CACTCCCGCAATCCCGCTGCTCGTGCCGCATACTCTCGCCCGGAGTCACCTAGTGCAG”, the binding signal is 13300 fluorescence intensity (a.u.). The same measure for “AGTATGGGCCGGGTCACAATTGTCAAAGCTTTACAACGCACGGAGTCACCTAGTGCAG”: 9510 fluorescence intensity (a.u.); for “TCTTGCGAGCTACGTTTTGGTTGGTGGTGTAGCGTGAGAACGGAGTCACCTAGTGCAG”: 11200 fluorescence intensity (a.u.). “GGAGGAGAGAGAGGAAGAGAGATGGTGAGGGGAGGGAGGACGGAGTCACCTAGTGCAG”: the binding signal was 10000 fluorescence intensity (a.u.). As to “TTGCCCAAGAGCTGACCCAACTCATTAAAATTACGCTTCTCGGAGTCACCTAGTGCAG”, the binding signal is 8270 fluorescence intensity (a.u.). The same measure for “GGGAGGTTGTGCTTGGGTTGGTCGGGCGGTCGCTACTATGCGGAGTCACCTAGTGCAG”: 10600 fluorescence intensity (a.u.); for “ATGGTCTTATTAATCACTTCTTATTTAAATTTCTCCCTATCGGAGTCACCTAGTGCAG”: 9800 fluorescence intensity (a.u.); for “TTTTGCCCTTTTTCTCTCGCCAGCTCGGACCCGTCGTGACCGGAGTCACCTAGTGCAG”: 8730 fluorescence intensity (a.u.). For “CGTGAACTTTCGATGCTTTAAAATCATTTTTGCCTTAAACCGGAGTCACCTAGTGCAG”, the binding signal was 8170 fluorescence intensity (a.u.). As to “GCCAGCAAGCCAAGCCCACCCAATCACCCCAACCGCCTCACGGAGTCACCTAGTGCAG”, the binding signal is 8220 fluorescence intensity (a.u.). “GACTCCACCAAGAACACAACTGCTGACGATTTGACGACTCCGGAGTCACCTAGTGCAG”: the binding signal was 8220 fluorescence intensity (a.u.). For “ACGCTCTCCACCCGTCTCGCTCTCACCTCTCACTTCGACTCGGAGTCACCTAGTGCAG” the value was 11500 fluorescence intensity (a.u.); for “GCTTGGCTTCGCAATCCCATGCATCGCCATGGCCGTTTCTCGGAGTCACCTAGTGCAG”, 8080 fluorescence intensity (a.u.).
